Test results reported in PubChem BioAssay AID2685 (National Center for Advancing Translational Sciences (NCATS), 2010).
The list shows a part of the results. Shown are side measurements of this screen, not its main read-out; they come without a call. The list favours compounds with an active or inconclusive main result. The note in brackets gives the kind of curve behind each potency; many fits are weak.

Test: qHTS Assay for Lipid Storage Modulators in Drosophila S3 Cells;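 on cell number change: cells counted by Cell Tracker Red CMTPX staining in the red channel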
Settings: BODIPY lipid droplet fluorescence, 18-24 h; for cell number change: measured here: cell count max response, cells fed with added oleic acid
In short: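 Drosophila S3 cells got compounds at several concentrations plus oleic acid (400 uM solution). Laser-scanning cytometry with 488 nm excitation read lipid droplets at 500-530 nm and cells at 575-640 nm. Percent activity was relative to 20 uM Triacsin C.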

[1] = measured here: lipid fluorescence (Fed channel) AC50, cells fed with added oleic acid
[2] = measured here: cell number channel AC50, cells fed with added oleic acid

SMILES	cell number change [%]	AC50 [1]	AC50 [2]
CCOC(=O)CNCCC(=O)c1ccc(Br)cc1	-5.62	411 nM [falling, full curve, poor fit]	
C=CCn1c(SCC(=O)c2ccc(Cl)cc2)nnc1-c1ccc2c(c1)OCO2	16.3	3660 nM [rising, full curve, poor fit]	
CC1CCN(C(=O)CSc2nc3cccnc3n2C)CC1	31.4		
CCc1nnc(NC(=O)c2cccnc2)s1	39.5		29100 nM [rising, single point]
COc1ccc(CCN2C(=NC(=O)CC(C)C)SC3CS(=O)(=O)CC32)cc1OC (stereo not drawn)	-3.63	2060 nM [falling, single point]	
CCOC(=O)Cc1csc(NC(=O)Nc2cccs2)n1	-18.7	5.17 nM [falling, full curve, poor fit]	
COCCNC(=O)C(c1ccc(C)o1)N(C(=O)c1snc(C(N)=O)c1N)c1ccc(C)c(C)c1 (stereo not drawn)	-3.02		
COc1cccc(C(=O)NOCc2ccc(C)cc2)c1OC	-7.57	731 nM [rising, single point]	
CCN(CC)CCc1c(C)[nH]c(C(=O)OCc2ccccc2)c1C	24.6		184 nM [rising, full curve, poor fit]
O=C(O)c1cnn2cc(-c3[nH]ncc3[N+](=O)[O-])cnc12	31.8	2060 nM [rising, full curve, poor fit]	20600 nM [rising, single point]
COc1ccc(S(=O)(=O)c2ccc(OC)cc2)cc1	22.8	820 nM [falling, single point]	
Cn1c(=O)c2c(nc(CN3CCN(c4ccccc4)CC3)n2Cc2ccccc2F)n(C)c1=O	-11	16400 nM [rising, partial curve]	
Cc1ccnc(N2C(=O)c3ccccc3C2Nc2ccc3c(c2)OCCO3)c1 (stereo not drawn)	-11.6	32600 nM [falling, single point]	
C/C(=N\NS(=O)(=O)c1ccc(Br)cc1)c1ccc2c(c1)OCO2	19.8	29100 nM [rising, single point]	
CNC(=O)c1c(NC(=O)c2ccc(S(=O)(=O)N3CCCc4ccccc43)cc2)sc2c1CCN(C)C2	-26.1	146 nM [falling, full curve]	651 nM [falling, full curve]
CNC(=O)CSc1nnc(-c2ccco2)n1-c1ccccc1	0.552		
Cc1ccc(S(=O)(=O)N(C)C)cc1NC(=O)COC(=O)c1ccc2ccccc2n1	-3.55	3260 nM [falling, partial curve, poor fit]	
O=C(NNC1=NCCC1)C1CC1	29.2		
COc1cc([N+](=O)[O-])ccc1NC(=O)COC(=O)c1ccc(NC(N)=O)cc1	17.2	326 nM [rising, full curve]	
COc1ccc(OC)c(C2=NOC(C(=O)Nc3cc(C)nn3-c3ccccc3)C2)c1 (stereo not drawn)	6.51	73.1 nM [rising, full curve, poor fit]	

SMILES	cell number change [%]	AC50 [1]	AC50 [2]
CN(CC(=O)Nc1ccc(Cl)c(Cl)c1)CC(=O)Nc1ccc2c(c1)OCO2	-3.49		
COc1ccc(Cl)cc1NC(=O)CN(C)C(=O)c1ccc(C)s1		1460 nM [rising, partial curve]	
Cc1cccc(-c2nsc(SCC(=O)N3CCCC3)n2)c1	-20.5	23100 nM [falling, single point]	
COc1cccc(CNCc2cccc(Br)c2)c1OC	-4.03		4.61 nM [falling, full curve, poor fit]
CC(=O)N1CCC[C@H]1C(=O)O		920 nM [rising, full curve]	651 nM [rising, full curve]
Cc1ccc(NC(=O)c2nc[nH]c2C(=O)N[C@@H](C)C(=O)OC(C)(C)C)cc1	-47.7	29100 nM [falling, single point]	32600 nM [falling, single point]
COc1ccc(-c2csc(NC(=O)CSc3nnc(Nc4ccccc4C)s3)n2)cc1	47.5		
O=C(C1CC1)N1CCN(c2ccc([N+](=O)[O-])cc2-n2cccc2)CC1	-25.8	16400 nM [falling, single point]	4110 nM [falling, full curve, poor fit]
Cc1ncc(S(=O)(=O)c2ccccc2)c(-c2ccccc2)n1		1640 nM [falling, partial curve]	
Cc1cccc(CSCCNC(=O)CSCc2ccc([N+](=O)[O-])cc2)c1		18400 nM [falling, single point]	
COc1ccc(NS(=O)(=O)c2ccc(N3CCOCC3)c(NC(=O)c3ccc(F)cc3)c2)cc1	18.5	32600 nM [rising, single point]	
O=C(O)CCN1CCc2ccccc2C1c1ccncc1 (stereo not drawn)	27.5	9200 nM [rising, partial curve]	
O=C(CC1S/C(=N/N=C/c2cccs2)NC1=O)Nc1ccccc1F (stereo not drawn)	-19.3	116 nM [falling, full curve, poor fit]	
O=C(c1cccs1)n1nc(-c2ccco2)nc1SCc1ccccc1		116 nM [falling, full curve, poor fit]	116 nM [falling, full curve, poor fit]
COC(=O)Cn1c(CN2CCN(c3ccc(F)cc3)CC2)nc2c1c(=O)n(C)c(=O)n2C	-46.3	5800 nM [falling, partial curve]	4110 nM [falling, full curve]
Clc1ccc(-c2nnc(NCCN3CCCC3)c3ccccc23)cc1	48.6	29100 nM [rising, single point]	
CC1CCCN(c2ccc(C(=O)Nc3ccc4c(c3)OCO4)cc2[N+](=O)[O-])C1 (stereo not drawn)	-6.34	2310 nM [rising, partial curve]	
COc1ccc(-c2nnn(CC(=O)N(CC(=O)NC3CCCC3)Cc3cccs3)n2)cc1OC	-2.16	18400 nM [rising, single point]	
Cc1ccc(NC(=O)CN2C(=O)NC(C)(C)C2=O)cc1S(=O)(=O)N1CCCCCC1	29.5		

Three entries from above, ordered by molecular weight, largest number first:
SMILES	cell number change [%]	AC50 [1]	AC50 [2]
COC(=O)Cn1c(CN2CCN(c3ccc(F)cc3)CC2)nc2c1c(=O)n(C)c(=O)n2C	-46.3	5800 nM [falling, partial curve]	4110 nM [falling, full curve]
Cc1ccc(NC(=O)CN2C(=O)NC(C)(C)C2=O)cc1S(=O)(=O)N1CCCCCC1	29.5		
O=C(C1CC1)N1CCN(c2ccc([N+](=O)[O-])cc2-n2cccc2)CC1	-25.8	16400 nM [falling, single point]	4110 nM [falling, full curve, poor fit]
